These are yes or no findings as the source states them, for the method shown. In cells and extracts the contact can be indirect. Some entries that bind do so weakly or less than the wild type. Where a sequence is shown, tags or fusion partners need not be part of it.
What was measured:
[1] = target: T1, GST-Nrd1 (wild-type Nrd1, RRM-type RNA-binding protein) (S. pombe) (UniProt Q09702); assay: pull-down; GST-fused Nrd1 versions co-expressed in S. pombe cells with endogenous Cpc2-GFP; lysates bound to glutathione sepharose, immunoblot with anti-GFP and anti-GST; cells untreated (27°C), heat shock (42°C, 10 min) or 2.0 mM arsenite (120 min)
T1 sequence: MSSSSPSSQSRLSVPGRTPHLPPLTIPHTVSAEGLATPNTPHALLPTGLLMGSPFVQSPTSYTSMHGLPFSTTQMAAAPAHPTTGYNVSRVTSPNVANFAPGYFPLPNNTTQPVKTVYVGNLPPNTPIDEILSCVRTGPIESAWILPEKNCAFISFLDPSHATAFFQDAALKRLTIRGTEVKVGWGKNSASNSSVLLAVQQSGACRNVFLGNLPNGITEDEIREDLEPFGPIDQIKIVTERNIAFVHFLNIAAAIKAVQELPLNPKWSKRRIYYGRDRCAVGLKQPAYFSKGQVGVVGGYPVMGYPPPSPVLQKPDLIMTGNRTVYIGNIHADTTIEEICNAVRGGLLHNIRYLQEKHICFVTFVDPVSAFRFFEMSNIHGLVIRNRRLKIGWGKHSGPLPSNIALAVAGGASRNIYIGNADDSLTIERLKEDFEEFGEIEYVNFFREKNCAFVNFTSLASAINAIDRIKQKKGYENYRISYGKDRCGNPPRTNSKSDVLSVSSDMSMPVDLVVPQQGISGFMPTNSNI

[2] = target: T2, GST-Nrd1^DD (phosphorylation-mimic Nrd1, T40 and T126 replaced with aspartic acid) (S. pombe) (UniProt Q09702); assay: as above
T2 sequence: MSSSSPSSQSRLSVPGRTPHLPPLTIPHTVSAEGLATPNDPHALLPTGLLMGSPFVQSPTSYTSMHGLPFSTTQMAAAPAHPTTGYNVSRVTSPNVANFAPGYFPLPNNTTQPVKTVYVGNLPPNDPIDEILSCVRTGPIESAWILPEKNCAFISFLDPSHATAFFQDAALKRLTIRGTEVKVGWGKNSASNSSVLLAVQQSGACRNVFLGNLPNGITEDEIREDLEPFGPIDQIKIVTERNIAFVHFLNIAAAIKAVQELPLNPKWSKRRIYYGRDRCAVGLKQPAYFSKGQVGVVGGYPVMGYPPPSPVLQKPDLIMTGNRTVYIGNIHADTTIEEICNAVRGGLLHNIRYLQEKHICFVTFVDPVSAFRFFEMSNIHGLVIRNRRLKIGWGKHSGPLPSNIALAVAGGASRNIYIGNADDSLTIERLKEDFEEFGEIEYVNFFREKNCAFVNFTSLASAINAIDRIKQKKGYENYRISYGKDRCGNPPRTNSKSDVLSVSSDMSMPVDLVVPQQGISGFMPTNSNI

B1: Cpc2-GFP (Cpc2, the RACK1 orthologue in fission yeast) (protein, UniProt Q10281 1-314)
chain: MPEQLVLRATLEGHSGWVTSLSTAPENPDILLSGSRDKSIILWNLVRDDVNYGVAQRRLTGHSHFVSDCALSFDSHYALSASWDKTIRLWDLEKGECTHQFVGHTSDVLSVSISPDNRQVVSGSRDKTIKIWNIIGNCKYTITDGGHSDWVSCVRFSPNPDNLTFVSAGWDKAVKVWDLETFSLRTSHYGHTGYVSAVTISPDGSLCASGGRDGTLMLWDLNESTHLYSLEAKANINALVFSPNRYWLCAATGSSIRIFDLETQEKVDELTVDFVGVGKKSSEPECISLTWSPDGQTLFSGWTDNLIRVWQVTK
[1]
  binding: binds
[2]
  binding: binds

Source: publication PMC3261880
